# The campaign covered roughly 330,000 compounds. About 1,000 (0.3%) were called active. The inconclusive results got no clear call from the source; some entries with a clear call stand among them for comparison. Calls come from the whole dose curve; as a rule, active = well fitted inhibition curve with a large enough effect; inconclusive = small, poorly fitted or top-dose-only effect; inactive = no such curve, though single readings can be large or run the other way; tested in mouse RAW 264.7 cells. Potencies of inconclusive entries are doubtful fits and often do not repeat.
# Assay: qHTS for Inhibitors of Cell Surface uPA Generation; note: nearly all actives have a fitted effect of over 55% in size
# Settings: cell surface uPA generation assay; series mostly up to 38.3 µM
# Summary of the method: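 RAW 264.7, 4000 cells/well, o/n 37 C; cpd 1:5 dilution, up to 38.3 uM final; 24 h 37 C/5% CO2 with reagent; ATP-Lite lum. High ATP = LF entry blocked.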
# Potency is the fitted concentration of half-maximal effect.
row,Structure (SMILES),Potency
1,O=C(CCc1nc(-c2ccccc2F)no1)N1CCC2(CC1)OCCO2,inactive
2,O=c1oc(C2(O)CCCCC2)cc2ccc(-c3ccc4[nH]ccc4c3)cc12,"inconclusive: 2.51 µM [inhibitor, full curve, poor fit]"
3,CC(C)c1ccc(/C=C2\SC(=S)N(CCC(=O)N3CCCCC3CCO)C2=O)cc1 (stereo unspecified),"inconclusive: 11.2 µM [inhibitor, single point]"
4,Cc1ccc(N(Cc2ccco2)C(=O)c2ccc(N3CCCCC3)c([N+](=O)[O-])c2)cc1,"inconclusive: 10 µM [inhibitor, single point]"
5,O=C(NCCc1ccccc1)[C@@H]1CC=C[C@@H]2CCN(Cc3ccc(Cl)c(Cl)c3)C(=O)[C@@H]21,"inconclusive: 28.2 µM [inhibitor, single point]"
6,C[C@@H]([C@@H](O)c1ccccc1)N(C)C(=O)Cc1ccccc1,inactive
7,O=c1c2ccccc2[se]n1-c1ccccc1,"inconclusive: 12.6 µM [inhibitor, single point]"
8,C#CC1(O)C=CC2C3CCC4=CC(=O)CCC4C3CCC21CC (stereo unspecified),"inconclusive: 12.6 µM [inhibitor, single point]"
9,COc1ccc(N(CC(=O)Nc2ccccc2C(F)(F)F)C2=NC3CS(=O)(=O)CC3S2)cc1 (stereo unspecified),"inconclusive: 11.2 µM [inhibitor, single point]"
10,CC(=O)N1CCc2c(sc(NC(=O)C3CC3)c2-c2nc3ccccc3s2)C1,"inconclusive: 28.2 µM [inhibitor, single point]"
11,C[C@]12CC[C@H]3[C@@H](CCC4=CC(=O)CC[C@@]43C)[C@@H]1CC[C@@H]2O,"inconclusive: 2.51 µM [inhibitor, full curve, poor fit]"
12,CCOC(=O)C1(CCOc2ccccc2)CCN(Cc2ccccc2OC)CC1,inactive
13,CN(C)C(=O)Oc1ccc(OC(=O)c2ccccc2)cc1,inactive
14,CCn1nc(-c2cccs2)nc2c(=O)n(C)c(=O)nc1-2,inactive
15,CCC(=NCc1cc(OC)cc(OC)c1)c1c(O)[nH]c(=O)[nH]c1=O,"inconclusive: 4.47 µM [inhibitor, partial curve]"
16,CN(C)c1ccc(/C=C(\Cl)c2nc3ccccc3s2)cc1,active: 10 µM
17,O=c1c(O)c(-c2ccc(O)c(O)c2)oc2cc(O)cc(O)c12,"inconclusive: 7.94 µM [inhibitor, partial curve]"
18,COc1ccc2c(c1)C[C@]1(C)c3ccccc3C(=O)N(Cc3ccccc3)[C@H]21,"inconclusive: 12.6 µM [inhibitor, single point]"
19,O=C(O)c1ccccc1-c1ccc(C=C2C(=O)N(c3ccccc3)C(=S)N(c3ccccc3)C2=O)o1,"inconclusive: 20 µM [inhibitor, single point]"
20,Cc1ccc2c(c1)COc1c3ccc(C(=O)NCC4CC4)cc3nn1-2,"inconclusive: 8.91 µM [inhibitor, partial curve, poor fit]"
21,COc1ccc(-c2oc3cc(OC)c(O)c(OC)c3c(=O)c2OC)cc1O,"inconclusive: 10 µM [inhibitor, single point]"

row,Structure (SMILES),Potency
1,CCN1CCN(Cc2ccc(NC(=O)c3ccc(C)c(NC(=O)c4c[nH]c5cc(C(F)(F)F)ccc5c4=O)c3)cc2C(F)(F)F)CC1,"inconclusive: 14.1 µM [inhibitor, single point]"
2,COc1cc(NC(=O)c2[nH]cnc2C(N)=O)cc(C(=O)Nc2cccc(C(F)(F)F)c2)c1,"inconclusive: 12.6 µM [inhibitor, single point]"
3,CN1CCc2c(C#N)c(Cl)nc(Cl)c2C1,active: 11.2 µM
4,COc1ccc2[nH]c(C)c(CCNCc3cc(OC)c4c(c3)OCO4)c2c1,"inconclusive: 12.6 µM [inhibitor, single point]"
5,CC(=NCCN(C)C)c1c(O)n(Cc2ccccc2)c(=O)[nH]c1=O,inactive
6,COC(=O)C1=C(c2cccc(OCc3ccccc3)c2)C[C@@H]2CC[C@H]1N2C(=O)NCCOc1ccccc1,"inconclusive: 20 µM [inhibitor, single point]"
7,CCCCC(=O)N/N=C/c1c(O)n(CCC2=CCCCC2)c(=O)[nH]c1=O,"inconclusive: 28.2 µM [inhibitor, single point]"
8,Cc1cccn2c(=O)c3cc(C(=O)N4CCC5(CC4)OCCO5)n(C)c3nc12,inactive
9,COC(=O)C1=C(c2ccc(F)cc2F)C[C@@H]2CC[C@H]1N2C(=O)NCc1ccco1,inactive
10,COC(=O)C1=C(c2ccc(Cl)c(C(F)(F)F)c2)C[C@@H]2CC[C@H]1N2C(=O)NC1CCCCC1,"inconclusive: 8.91 µM [inhibitor, single point]"
11,O=C(Cc1ccc(N(CCCl)CCCl)cc1)NC(Cc1ccc(Cl)cc1)C(=O)O (stereo unspecified),"inconclusive: 10 µM [inhibitor, partial curve, poor fit]"
12,CCOC(=O)c1cccc(-[n+]2c(-c3ccccc3)cc(-c3ccccc3)cc2-c2ccccc2)c1,"inconclusive: 28.2 µM [inhibitor, single point]"
13,O=C(OC1CCN(CCCl)CC1)C(c1ccccc1)c1ccccc1,"inconclusive: 8.91 µM [inhibitor, single point]"
14,Cc1cc([N+](=O)[O-])nn1CC(=O)N/N=C/c1ccccc1O,"inconclusive: 10 µM [inhibitor, partial curve, poor fit]"
15,c1ccc(CCCN2CCN(CCOC(c3ccccc3)c3ccccc3)CC2)cc1,"inconclusive: 12.6 µM [inhibitor, single point]"
16,COc1ccc(C2/C=C\CN(C(=O)Nc3ccc(C(F)(F)F)cc3)CC(=O)N2Cc2ccc(F)cc2)cc1 (stereo unspecified),"inconclusive: 28.2 µM [inhibitor, single point]"
17,C[C@]12CCC(=O)C=C1CC[C@@H]1[C@@H]2CC[C@@]2(C)[C@H]1CC[C@]2(C)O,"inconclusive: 12.6 µM [inhibitor, single point]"
18,Fc1ccc2c(c1)nnn2C1CCN(Cc2nnnn2CCc2ccccc2)CC1,inactive
19,CC1([N+](=O)[O-])COP(=O)(Nc2ccc(Cl)cc2)OC1 (stereo unspecified),inactive
20,O=c1cc(-c2ccccc2Cl)oc2c(NS(=O)(=O)c3cc(Cl)cc(Cl)c3O)ccc(O)c12,"inconclusive: 12.6 µM [inhibitor, single point]"
